Data published in paper PMC9410891.
These are yes or no findings as the source states them, for the method shown. In cells and extracts the contact can be indirect. Some binding calls cover weakened binding; strength is not graded here.

Sequences of proteins named here, by UniProt entry; tags and fusion partners are left off.
UniProt Q4JK59: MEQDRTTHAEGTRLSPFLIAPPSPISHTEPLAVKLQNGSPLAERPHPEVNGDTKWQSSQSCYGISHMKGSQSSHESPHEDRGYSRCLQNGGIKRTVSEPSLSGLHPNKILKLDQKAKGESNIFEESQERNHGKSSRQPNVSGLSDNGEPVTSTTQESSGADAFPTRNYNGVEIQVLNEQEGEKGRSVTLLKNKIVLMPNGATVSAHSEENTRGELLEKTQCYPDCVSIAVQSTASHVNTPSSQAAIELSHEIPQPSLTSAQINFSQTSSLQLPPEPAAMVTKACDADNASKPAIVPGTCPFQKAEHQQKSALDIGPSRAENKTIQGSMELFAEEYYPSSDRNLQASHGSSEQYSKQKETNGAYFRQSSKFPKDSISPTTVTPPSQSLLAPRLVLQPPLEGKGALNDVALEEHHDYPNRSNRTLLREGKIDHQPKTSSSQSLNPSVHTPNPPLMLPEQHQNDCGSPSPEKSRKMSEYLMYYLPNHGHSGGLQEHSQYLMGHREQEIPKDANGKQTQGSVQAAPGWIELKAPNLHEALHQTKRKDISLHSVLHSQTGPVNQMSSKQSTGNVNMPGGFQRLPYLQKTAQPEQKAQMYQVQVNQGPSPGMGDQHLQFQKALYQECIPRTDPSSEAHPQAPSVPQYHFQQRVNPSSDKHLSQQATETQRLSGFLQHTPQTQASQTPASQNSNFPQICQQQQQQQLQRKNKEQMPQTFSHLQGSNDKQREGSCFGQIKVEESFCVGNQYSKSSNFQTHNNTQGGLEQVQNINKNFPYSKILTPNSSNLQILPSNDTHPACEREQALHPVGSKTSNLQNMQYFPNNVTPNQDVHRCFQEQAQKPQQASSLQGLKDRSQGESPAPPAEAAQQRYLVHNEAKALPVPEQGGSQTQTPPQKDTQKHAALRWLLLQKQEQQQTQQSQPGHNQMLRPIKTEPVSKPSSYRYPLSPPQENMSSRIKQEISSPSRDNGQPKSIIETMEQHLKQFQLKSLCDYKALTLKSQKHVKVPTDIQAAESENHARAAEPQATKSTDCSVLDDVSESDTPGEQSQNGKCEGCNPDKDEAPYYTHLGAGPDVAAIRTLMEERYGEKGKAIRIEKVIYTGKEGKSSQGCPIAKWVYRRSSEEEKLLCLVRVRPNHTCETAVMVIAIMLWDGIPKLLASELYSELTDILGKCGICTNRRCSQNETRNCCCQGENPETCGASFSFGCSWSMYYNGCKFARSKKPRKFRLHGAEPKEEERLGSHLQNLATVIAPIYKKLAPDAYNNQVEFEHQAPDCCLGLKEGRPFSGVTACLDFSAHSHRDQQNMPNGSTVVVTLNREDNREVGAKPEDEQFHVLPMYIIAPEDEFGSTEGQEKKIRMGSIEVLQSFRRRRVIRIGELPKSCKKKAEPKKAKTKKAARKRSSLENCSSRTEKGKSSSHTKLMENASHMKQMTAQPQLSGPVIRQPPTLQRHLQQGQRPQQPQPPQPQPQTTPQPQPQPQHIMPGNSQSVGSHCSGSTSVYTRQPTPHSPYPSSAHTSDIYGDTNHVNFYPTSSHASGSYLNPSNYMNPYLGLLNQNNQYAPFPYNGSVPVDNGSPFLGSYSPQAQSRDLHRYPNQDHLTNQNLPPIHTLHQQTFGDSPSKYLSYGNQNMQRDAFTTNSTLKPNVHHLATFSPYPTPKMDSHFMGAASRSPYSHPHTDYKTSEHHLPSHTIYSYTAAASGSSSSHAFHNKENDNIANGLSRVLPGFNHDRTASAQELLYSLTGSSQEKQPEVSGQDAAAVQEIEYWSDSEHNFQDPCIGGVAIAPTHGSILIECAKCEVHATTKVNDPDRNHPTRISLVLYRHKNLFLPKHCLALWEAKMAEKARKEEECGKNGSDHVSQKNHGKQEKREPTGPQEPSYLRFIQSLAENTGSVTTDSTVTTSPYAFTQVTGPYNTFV
UniProt Q61188: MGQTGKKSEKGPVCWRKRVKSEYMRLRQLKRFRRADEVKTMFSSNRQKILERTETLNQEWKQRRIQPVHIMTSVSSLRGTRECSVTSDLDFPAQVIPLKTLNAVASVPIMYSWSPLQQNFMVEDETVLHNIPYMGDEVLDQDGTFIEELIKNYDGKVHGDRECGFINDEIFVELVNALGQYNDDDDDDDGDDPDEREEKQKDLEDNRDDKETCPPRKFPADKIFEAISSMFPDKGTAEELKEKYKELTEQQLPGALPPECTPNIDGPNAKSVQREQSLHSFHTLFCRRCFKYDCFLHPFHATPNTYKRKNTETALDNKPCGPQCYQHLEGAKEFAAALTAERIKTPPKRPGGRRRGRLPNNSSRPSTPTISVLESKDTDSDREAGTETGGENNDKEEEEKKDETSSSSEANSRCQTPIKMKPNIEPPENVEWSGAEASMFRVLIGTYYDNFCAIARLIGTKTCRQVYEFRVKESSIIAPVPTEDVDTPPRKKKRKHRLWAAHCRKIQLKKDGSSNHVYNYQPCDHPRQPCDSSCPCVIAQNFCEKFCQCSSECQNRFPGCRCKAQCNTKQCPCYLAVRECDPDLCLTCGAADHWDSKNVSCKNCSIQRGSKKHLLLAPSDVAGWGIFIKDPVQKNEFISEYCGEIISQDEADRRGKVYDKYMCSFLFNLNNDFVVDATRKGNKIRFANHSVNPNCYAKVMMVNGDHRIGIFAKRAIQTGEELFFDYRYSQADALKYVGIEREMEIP

Biological target: TET2 (mouse (endogenous in CD19+ B cells)) (UniProt Q4JK59)
Experiment: co-IP; extracts of CD19+ B cells from control (Hdac7+/-) and HDAC7-deficient (Hdac7fl/-) mice; lysis buffer 50 mM Tris-HCl pH 7.5, 1 mM EDTA, 150 mM NaCl, 1% Triton-X-100, with Benzonase; precipitated overnight at 4°C with anti-TET2 (ab124297), rabbit IgG as negative control; blotted

## EZH2 (from UniProt Q61188 1-746)
  binding: binds
